In patent US9926581B2, “Fagopyritol synthase genes and uses thereof” (Cornell Research Foundation, Inc., priority 2002, dated 2018):

Test system: soybean explants
Test: Soybean explant feeding 3 days with 50 mM cyclitol in 1% sucrose, slow drying time course, soluble carbohydrates in axis, cotyledon, seed coat and leaf
[1] = 3 days transport of sucrose (1%) and D-chiro-inositol (50 mM), after 2 days slow drying, Rep 1
[2] = 3 days transport of sucrose (1%) and D-chiro-inositol (50 mM), after 2 days slow drying, Rep 2
[3] = 3 days transport of sucrose (1%) and D-chiro-inositol (50 mM), after 4 days slow drying, Rep 1
[4] = 3 days transport of sucrose (1%) and D-chiro-inositol (50 mM), after 4 days slow drying, Rep 2
[5] = 3 days transport of sucrose (1%) and D-chiro-inositol (50 mM), after 14 days slow drying, Rep 1
[6] = 3 days transport of sucrose (1%) and D-chiro-inositol (50 mM), after 14 days slow drying, Rep 2
[7] = 3 days transport of sucrose (1%) and D-chiro-inositol (50 mM), before slow drying, Rep 1
[8] = 3 days transport of sucrose (1%) and D-chiro-inositol (50 mM), before slow drying, Rep 2
[9] = 3 days transport of sucrose (1%) and D-pinitol (50 mM), after 2 days slow drying, Rep 1
[10] = 3 days transport of sucrose (1%) and D-pinitol (50 mM), after 2 days slow drying, Rep 2
[11] = 3 days transport of sucrose (1%) and D-pinitol (50 mM), after 4 days slow drying, Rep 1
[12] = 3 days transport of sucrose (1%) and D-pinitol (50 mM), after 4 days slow drying, Rep 2
[13] = 3 days transport of sucrose (1%) and D-pinitol (50 mM), after 14 days slow drying, Rep 1
[14] = 3 days transport of sucrose (1%) and D-pinitol (50 mM), after 14 days slow drying, Rep 2
[15] = 3 days transport of sucrose (1%) and D-pinitol (50 mM), before slow drying, Rep 1
[16] = 3 days transport of sucrose (1%) and D-pinitol (50 mM), before slow drying, Rep 2
[17] = 3 days transport of sucrose (1%) and myo-inositol (50 mM), after 2 days slow drying, Rep 1
[18] = 3 days transport of sucrose (1%) and myo-inositol (50 mM), after 2 days slow drying, Rep 2
[19] = 3 days transport of sucrose (1%) and myo-inositol (50 mM), after 4 days slow drying, Rep 1
[20] = 3 days transport of sucrose (1%) and myo-inositol (50 mM), after 4 days slow drying, Rep 2
[21] = 3 days transport of sucrose (1%) and myo-inositol (50 mM), after 14 days slow drying, Rep 1

## OCC1O[C@H](OC2C(O)[C@H](O)C(O)C(O)[C@@H]2O)C(O)C(O)[C@H]1O (stereo partly drawn) [Fagopyritol B1, α-D-galactopyranosyl-(1→2)-1D-chiro-inositol]
[1]
  Accumulation of soluble carbohydrates in soybean axis: 32.08 μg/axis
  Accumulation of soluble carbohydrates in soybean cotyledon: 45.25 μg/cotyledon
  Accumulation of soluble carbohydrates in soybean seed coat: 3.52 μg/seed coat
[2]
  Accumulation of soluble carbohydrates in soybean axis: 25.93 μg/axis
  Accumulation of soluble carbohydrates in soybean cotyledon: 25.67 μg/cotyledon
  Accumulation of soluble carbohydrates in soybean seed coat: 4.88 μg/seed coat
[3]
  Accumulation of soluble carbohydrates in soybean axis: 81.94 μg/axis
  Accumulation of soluble carbohydrates in soybean cotyledon: 711.00 μg/cotyledon
  Accumulation of soluble carbohydrates in soybean seed coat: 9.14 μg/seed coat
[4]
  Accumulation of soluble carbohydrates in soybean axis: 73.53 μg/axis
  Accumulation of soluble carbohydrates in soybean cotyledon: 535.23 μg/cotyledon
  Accumulation of soluble carbohydrates in soybean seed coat: 8.69 μg/seed coat
[5]
  Accumulation of soluble carbohydrates in soybean axis: 78.96 μg/axis
  Accumulation of soluble carbohydrates in soybean cotyledon: 612.60 μg/cotyledon
  Accumulation of soluble carbohydrates in soybean seed coat: 14.54 μg/seed coat
[6]
  Accumulation of soluble carbohydrates in soybean axis: 55.76 μg/axis
  Accumulation of soluble carbohydrates in soybean cotyledon: 626.65 μg/cotyledon
  Accumulation of soluble carbohydrates in soybean seed coat: 51.81 μg/seed coat
[7]
  Accumulation of soluble carbohydrates in soybean axis: 2.04 μg/axis
  Accumulation of soluble carbohydrates in soybean cotyledon: 10.55 μg/cotyledon
[8]
  Accumulation of soluble carbohydrates in soybean axis: 0 μg/axis
  Accumulation of soluble carbohydrates in soybean cotyledon: 0 μg/cotyledon
[9]
  Accumulation of soluble carbohydrates in soybean axis: 4.30 μg/axis
  Accumulation of soluble carbohydrates in soybean cotyledon: 4.99 μg/cotyledon
  Accumulation of soluble carbohydrates in soybean seed coat: 0 μg/seed coat
[10]
  Accumulation of soluble carbohydrates in soybean axis: 2.75 μg/axis
  Accumulation of soluble carbohydrates in soybean cotyledon: 4.57 μg/cotyledon
  Accumulation of soluble carbohydrates in soybean seed coat: 2.10 μg/seed coat
[11]
  Accumulation of soluble carbohydrates in soybean axis: 5.79 μg/axis
  Accumulation of soluble carbohydrates in soybean cotyledon: 51.96 μg/cotyledon
  Accumulation of soluble carbohydrates in soybean seed coat: 1.66 μg/seed coat
[12]
  Accumulation of soluble carbohydrates in soybean axis: 4.01 μg/axis
  Accumulation of soluble carbohydrates in soybean cotyledon: 69.76 μg/cotyledon
  Accumulation of soluble carbohydrates in soybean seed coat: 1.66 μg/seed coat
[13]
  Accumulation of soluble carbohydrates in soybean axis: 6.41 μg/axis
  Accumulation of soluble carbohydrates in soybean cotyledon: 29.66 μg/cotyledon
  Accumulation of soluble carbohydrates in soybean seed coat: 4.07 μg/seed coat
[14]
  Accumulation of soluble carbohydrates in soybean axis: 8.76 μg/axis
  Accumulation of soluble carbohydrates in soybean cotyledon: 51.85 μg/cotyledon
  Accumulation of soluble carbohydrates in soybean seed coat: 10.12 μg/seed coat
[15]
  Accumulation of soluble carbohydrates in soybean axis: 0 μg/axis
  Accumulation of soluble carbohydrates in soybean cotyledon: 0 μg/cotyledon
[16]
  Accumulation of soluble carbohydrates in soybean axis: 0 μg/axis
  Accumulation of soluble carbohydrates in soybean cotyledon: 3.39 μg/cotyledon
[17]
  Accumulation of soluble carbohydrates in soybean axis: 3.15 μg/axis
  Accumulation of soluble carbohydrates in soybean cotyledons: 7.36 μg/cotyledon
  Accumulation of soluble carbohydrates in soybean seed coats: 3.04 μg/seed coat
[18]
  Accumulation of soluble carbohydrates in soybean axis: 5.91 μg/axis
  Accumulation of soluble carbohydrates in soybean cotyledons: 14.06 μg/cotyledon
  Accumulation of soluble carbohydrates in soybean seed coats: 1.97 μg/seed coat
[19]
  Accumulation of soluble carbohydrates in soybean axis: 6.25 μg/axis
  Accumulation of soluble carbohydrates in soybean cotyledons: 29.15 μg/cotyledon
[20]
  Accumulation of soluble carbohydrates in soybean axis: 7.43 μg/axis
  Accumulation of soluble carbohydrates in soybean cotyledons: 86.71 μg/cotyledon
  Accumulation of soluble carbohydrates in soybean seed coats: 1.90 μg/seed coat
[21]
  Accumulation of soluble carbohydrates in soybean axis: 11.14 μg/axis
  Accumulation of soluble carbohydrates in soybean cotyledons: 50.31 μg/cotyledon
  Accumulation of soluble carbohydrates in soybean seed coats: 5.51 μg/seed coat
3 days transport of sucrose (1%) and myo-inositol (50 mM), after 14 days slow drying, Rep 2
  Accumulation of soluble carbohydrates in soybean axis: 6.13 μg/axis
